{"source": "patent US4600705A", "about": "(Richter Gedeon Veyteszeti Gyar R.T., priority 1983, dated 1986)", "experiment": "general procedure: Boc solid-phase peptide synthesis; azide fragment coupling; pentafluorophenyl esters; diisopropyl carbodiimide", "note": "HELM strings list residues between dots; [ac] is acetyl, [am] amide, other brackets name non-standard units.", "data": [{"substance": "Glp-His-Trp-Ser-Tyr-Asp-IND", "values": [{"measurement": "step yield", "setting": "late stage modification step", "value": 83, "unit": "%"}]}, {"substance": "PEPTIDE1{[Glp].H.W.S.Y.[bAsp-ANI].L.R.P.G.[am]}$$$$V2.0", "values": [{"measurement": "isolated yield", "setting": "whole synthesis", "value": 12.5, "unit": "%"}]}, {"substance": "Glp-His-Trp-Ser-Tyr-Asp(OBzl)-IND", "values": [{"measurement": "step yield", "setting": "coupling step", "value": 60, "unit": "%"}]}]}
